In the supplement of paper PMC8612539:
Values after ≈ are worked out from the molar mass of the structure shown. Further values from the same series stand in other lists.

Tested on: Escherichia coli
Assay: minimum inhibitory concentration (MIC)
Procedure: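 Broth microdilution MIC (Sensititre BOPO7F bovine plate, CLSI methods) of 19 antimicrobials against field isolates of P. multocida, M. haemolytica, H. somni (deep nasopharyngeal swabs) and E. coli, Enterococcus spp. (rectal swabs) from weaned dairy heifers. Incubation 16-24 h at 35 C. MIC is the lowest concentration preventing visible growth. Values with <= or > lie at the tested range limits. Trimethoprim-sulfamethoxazole is given as the trimethoprim component of a 1:19 mixture.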

NC[C@@H]1O[C@H](O[C@H]2[C@@H](O)[C@H](O[C@@H]3[C@@H](O)[C@H](N)C[C@H](N)[C@H]3O[C@H]3O[C@H](CN)[C@@H](O)[C@H](O)[C@H]3N)O[C@@H]2CO)[C@H](N)[C@@H](O)[C@@H]1O [Neomycin]
Details | minimum inhibitory concentration [µg/mL]
isolate (source animal id): 1 | ≤ 4
isolate (source animal id): 2 | ≤ 4
isolate (source animal id): 3 | ≤ 4
isolate (source animal id): 4 | ≤ 4
isolate (source animal id): 5 | ≤ 4
isolate (source animal id): 6 | ≤ 4
isolate (source animal id): 7 | ≤ 4
isolate (source animal id): 17 | > 32
isolate (source animal id): 18 | ≤ 4
isolate (source animal id): 19 | ≤ 4
isolate (source animal id): 20 | ≤ 4
isolate (source animal id): 21 | ≤ 4
isolate (source animal id): 22 | ≤ 4
isolate (source animal id): 23 | ≤ 4
isolate (source animal id): 24 | ≤ 4
isolate (source animal id): 25 | 32 (≈ 52.1 µM)
isolate (source animal id): 26 | ≤ 4
isolate (source animal id): 27 | > 32
isolate (source animal id): 28 | ≤ 4
isolate (source animal id): 29 | > 32
isolate (source animal id): 30 | ≤ 4
isolate (source animal id): 31 | ≤ 4
isolate (source animal id): 32 | > 32
isolate (source animal id): 33 | ≤ 4
isolate (source animal id): 34 | ≤ 4
isolate (source animal id): 35 | ≤ 4
isolate (source animal id): 36 | ≤ 4
isolate (source animal id): 37 | > 32
isolate (source animal id): 38 | ≤ 4
isolate (source animal id): 39 | ≤ 4
isolate (source animal id): 40 | ≤ 4
isolate (source animal id): 41 | ≤ 4
isolate (source animal id): 42 | ≤ 4
isolate (source animal id): 43 | > 32
isolate (source animal id): 44 | ≤ 4
isolate (source animal id): 45 | ≤ 4
isolate (source animal id): 46 | ≤ 4
isolate (source animal id): 47 | ≤ 4
isolate (source animal id): 48 | ≤ 4
isolate (source animal id): 49 | ≤ 4
isolate (source animal id): 50 | ≤ 4
isolate (source animal id): 51 | > 32
isolate (source animal id): 52 | ≤ 4
isolate (source animal id): 53 | > 32
isolate (source animal id): 54 | ≤ 4
isolate (source animal id): 55 | ≤ 4
isolate (source animal id): 56 | ≤ 4
isolate (source animal id): 57 | > 32
isolate (source animal id): 58 | ≤ 4
isolate (source animal id): 59 | ≤ 4
isolate (source animal id): 60 | ≤ 4
isolate (source animal id): 61 | ≤ 4
isolate (source animal id): 62 | ≤ 4
isolate (source animal id): 63 | ≤ 4
isolate (source animal id): 64 | ≤ 4
isolate (source animal id): 65 | > 32
isolate (source animal id): 66 | > 32
isolate (source animal id): 67 | ≤ 4
isolate (source animal id): 68 | 32 (≈ 52.1 µM)
isolate (source animal id): 69 | ≤ 4
isolate (source animal id): 70 | ≤ 4
isolate (source animal id): 71 | ≤ 4
isolate (source animal id): 72 | ≤ 4
isolate (source animal id): 73 | ≤ 4
isolate (source animal id): 74 | ≤ 4
isolate (source animal id): 75 | ≤ 4
isolate (source animal id): 76 | ≤ 4
isolate (source animal id): 77 | > 32
isolate (source animal id): 78 | ≤ 4
isolate (source animal id): 79 | ≤ 4
isolate (source animal id): 80 | ≤ 4
isolate (source animal id): 81 | ≤ 4
isolate (source animal id): 82 | ≤ 4
isolate (source animal id): 83 | ≤ 4
isolate (source animal id): 84 | ≤ 4
isolate (source animal id): 85 | ≤ 4
isolate (source animal id): 86 | 32 (≈ 52.1 µM)
isolate (source animal id): 87 | ≤ 4
isolate (source animal id): 88 | ≤ 4
isolate (source animal id): 89 | ≤ 4
isolate (source animal id): 90 | ≤ 4
isolate (source animal id): 91 | ≤ 4
isolate (source animal id): 92 | ≤ 4
isolate (source animal id): 93 | ≤ 4
isolate (source animal id): 94 | ≤ 4
isolate (source animal id): 95 | ≤ 4
isolate (source animal id): 96 | ≤ 4
isolate (source animal id): 97 | > 32
isolate (source animal id): 189 | ≤ 4
isolate (source animal id): 190 | > 32
isolate (source animal id): 191 | ≤ 4
isolate (source animal id): 192 | ≤ 4
isolate (source animal id): 193 | ≤ 4
isolate (source animal id): 194 | ≤ 4
isolate (source animal id): 195 | ≤ 4
isolate (source animal id): 196 | > 32
isolate (source animal id): 197 | ≤ 4
isolate (source animal id): 198 | ≤ 4
isolate (source animal id): 199 | ≤ 4
isolate (source animal id): 200 | ≤ 4
isolate (source animal id): 201 | ≤ 4
isolate (source animal id): 202 | ≤ 4
isolate (source animal id): 203 | ≤ 4
isolate (source animal id): 204 | ≤ 4
isolate (source animal id): 205 | > 32
isolate (source animal id): 206 | ≤ 4
isolate (source animal id): 207 | ≤ 4
isolate (source animal id): 208 | ≤ 4
isolate (source animal id): 209 | ≤ 4
isolate (source animal id): 210 | > 32
isolate (source animal id): 211 | ≤ 4
isolate (source animal id): 212 | ≤ 4
isolate (source animal id): 213 | > 32
isolate (source animal id): 214 | ≤ 4
isolate (source animal id): 215 | ≤ 4
isolate (source animal id): 216 | ≤ 4
isolate (source animal id): 217 | ≤ 4
isolate (source animal id): 218 | ≤ 4
isolate (source animal id): 219 | ≤ 4
isolate (source animal id): 220 | ≤ 4
isolate (source animal id): 221 | ≤ 4
isolate (source animal id): 222 | ≤ 4
isolate (source animal id): 223 | ≤ 4
isolate (source animal id): 224 | ≤ 4
isolate (source animal id): 225 | ≤ 4
isolate (source animal id): 226 | ≤ 4
isolate (source animal id): 227 | ≤ 4
isolate (source animal id): 228 | ≤ 4
isolate (source animal id): 229 | ≤ 4
isolate (source animal id): 230 | ≤ 4
isolate (source animal id): 231 | ≤ 4
isolate (source animal id): 232 | ≤ 4
isolate (source animal id): 233 | 16 (≈ 26 µM)
isolate (source animal id): 234 | ≤ 4
isolate (source animal id): 235 | ≤ 4
isolate (source animal id): 236 | ≤ 4
isolate (source animal id): 237 | ≤ 4
isolate (source animal id): 238 | ≤ 4
isolate (source animal id): 239 | ≤ 4
isolate (source animal id): 240 | ≤ 4
isolate (source animal id): 241 | ≤ 4
isolate (source animal id): 242 | ≤ 4
isolate (source animal id): 243 | ≤ 4
isolate (source animal id): 244 | ≤ 4
isolate (source animal id): 245 | ≤ 4
isolate (source animal id): 246 | ≤ 4
isolate (source animal id): 247 | ≤ 4
isolate (source animal id): 248 | ≤ 4
isolate (source animal id): 249 | ≤ 4
isolate (source animal id): 250 | ≤ 4
isolate (source animal id): 251 | ≤ 4
isolate (source animal id): 252 | ≤ 4
isolate (source animal id): 253 | ≤ 4
isolate (source animal id): 254 | ≤ 4
isolate (source animal id): 255 | ≤ 4
isolate (source animal id): 256 | ≤ 4
isolate (source animal id): 257 | ≤ 4
isolate (source animal id): 258 | ≤ 4
isolate (source animal id): 259 | ≤ 4
isolate (source animal id): 260 | ≤ 4
isolate (source animal id): 261 | ≤ 4
isolate (source animal id): 262 | > 32
isolate (source animal id): 263 | ≤ 4
isolate (source animal id): 264 | ≤ 4
isolate (source animal id): 265 | ≤ 4
isolate (source animal id): 266 | ≤ 4
isolate (source animal id): 267 | ≤ 4
isolate (source animal id): 268 | ≤ 4
isolate (source animal id): 269 | ≤ 4
isolate (source animal id): 270 | ≤ 4
isolate (source animal id): 271 | ≤ 4
isolate (source animal id): 272 | ≤ 4
isolate (source animal id): 273 | ≤ 4
isolate (source animal id): 274 | ≤ 4
isolate (source animal id): 275 | ≤ 4
isolate (source animal id): 276 | ≤ 4
isolate (source animal id): 277 | ≤ 4
isolate (source animal id): 278 | ≤ 4
isolate (source animal id): 279 | ≤ 4
isolate (source animal id): 280 | ≤ 4
isolate (source animal id): 281 | ≤ 4
isolate (source animal id): 282 | ≤ 4
isolate (source animal id): 283 | ≤ 4
isolate (source animal id): 284 | ≤ 4
isolate (source animal id): 285 | ≤ 4
isolate (source animal id): 286 | > 32
isolate (source animal id): 287 | > 32
isolate (source animal id): 288 | ≤ 4
isolate (source animal id): 289 | ≤ 4
isolate (source animal id): 290 | > 32
isolate (source animal id): 291 | > 32
isolate (source animal id): 292 | > 32
isolate (source animal id): 293 | ≤ 4
isolate (source animal id): 294 | ≤ 4
isolate (source animal id): 295 | > 32
isolate (source animal id): 296 | ≤ 4
isolate (source animal id): 297 | ≤ 4
isolate (source animal id): 298 | ≤ 4
isolate (source animal id): 299 | ≤ 4
isolate (source animal id): 300 | ≤ 4
isolate (source animal id): 301 | ≤ 4
isolate (source animal id): 302 | ≤ 4
isolate (source animal id): 303 | ≤ 4
isolate (source animal id): 304 | ≤ 4
isolate (source animal id): 305 | ≤ 4
isolate (source animal id): 306 | ≤ 4
isolate (source animal id): 307 | ≤ 4
isolate (source animal id): 308 | ≤ 4
isolate (source animal id): 309 | > 32
isolate (source animal id): 310 | ≤ 4
isolate (source animal id): 311 | 16 (≈ 26 µM)
isolate (source animal id): 312 | ≤ 4
isolate (source animal id): 313 | 32 (≈ 52.1 µM)
isolate (source animal id): 314 | ≤ 4
isolate (source animal id): 315 | ≤ 4
isolate (source animal id): 316 | 32 (≈ 52.1 µM)
isolate (source animal id): 317 | > 32
isolate (source animal id): 318 | > 32
isolate (source animal id): 319 | ≤ 4
isolate (source animal id): 320 | 32 (≈ 52.1 µM)
isolate (source animal id): 321 | ≤ 4
isolate (source animal id): 322 | 16 (≈ 26 µM)
isolate (source animal id): 323 | > 32
isolate (source animal id): 324 | ≤ 4
isolate (source animal id): 325 | > 32
isolate (source animal id): 326 | ≤ 4
isolate (source animal id): 327 | ≤ 4
isolate (source animal id): 328 | ≤ 4
isolate (source animal id): 329 | ≤ 4
isolate (source animal id): 330 | ≤ 4
isolate (source animal id): 331 | 32 (≈ 52.1 µM)
isolate (source animal id): 332 | 16 (≈ 26 µM)
isolate (source animal id): 333 | 32 (≈ 52.1 µM)
isolate (source animal id): 334 | > 32
isolate (source animal id): 335 | > 32
isolate (source animal id): 336 | ≤ 4
isolate (source animal id): 337 | 32 (≈ 52.1 µM)
isolate (source animal id): 338 | > 32
isolate (source animal id): 339 | ≤ 4
isolate (source animal id): 340 | > 32
isolate (source animal id): 341 | ≤ 4
